The campaign covered roughly 350,000 compounds. About 1,200 (0.34%) were called active. Inconclusive means that the source gave no clear call. Such entries were picked first, then a sample of the others. Calls follow the shape of the dose curve; as a rule, active = well fitted inhibition curve with a large enough effect; inconclusive = small, poorly fitted or top-dose-only effect; inactive = no such curve, though single readings can be large or run the other way. Potencies of inconclusive entries are doubtful fits and often do not repeat.
Target: DNA repair nuclease/redox regulator APEX1 (Homo sapiens) (UniProt P27695)
Assay: qHTS Assay for Inhibitors of the Human Apurinic/apyrimidinic Endonuclease 1 (APE1); also: nearly all actives have a fitted effect of over 55% in size;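 as to activity change, negative = inhibition: plate controls were vehicle for no effect and reference inhibitor for full effect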
Conditions: recombinant APE1, TAMRA/BHQ-2 abasic DNA cleavage fluorescence; activity change, negative = inhibition: at 65.8 µM (top of the series)
Summary of the method: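 Enzyme (0.75 nM final) and test compound are incubated 15 min at room temperature before adding 50 nM quenched THF abasic-site duplex. Cleavage dequenches TAMRA, followed at 525/598 nm over three reads one minute apart.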
Potency is read from the fitted curve at half-maximal effect.

Chains of the proteins cited; added tags and fusions are not shown.
UniProt P27695, whole entry, looked up: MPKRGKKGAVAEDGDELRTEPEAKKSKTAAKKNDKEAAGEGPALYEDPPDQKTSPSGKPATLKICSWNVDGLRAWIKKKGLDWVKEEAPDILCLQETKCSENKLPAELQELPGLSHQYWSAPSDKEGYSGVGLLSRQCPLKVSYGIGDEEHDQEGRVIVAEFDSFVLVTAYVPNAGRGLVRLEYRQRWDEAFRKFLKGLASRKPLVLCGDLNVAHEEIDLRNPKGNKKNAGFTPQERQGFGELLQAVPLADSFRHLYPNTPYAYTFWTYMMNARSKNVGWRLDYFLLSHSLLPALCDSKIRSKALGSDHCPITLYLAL

| SMILES | Potency | activity change, negative = inhibition |
| --- | --- | --- |
| N#CCC(=O)c1sccc1-n1cccc1 | inconclusive: 11.2 µM [inhibitor, partial curve, poor fit] | – |
| Nc1nccc(/C=C/c2c(Cl)cccc2Cl)n1 | inconclusive: 5.62 µM [inhibitor, single point] | – |
| Cc1[nH][nH]c(=O)c1C(c1ccc(-c2ccc(Cl)cc2Cl)o1)c1c(C)[nH][nH]c1=O | inconclusive: 39.8 µM [inhibitor, single point] | – |
| O=C(COC(=O)/C=C/c1ccc(F)cc1)NCc1ccco1 | inconclusive: 50.1 µM [inhibitor, partial curve, poor fit] | – |
| CCC(=C(c1ccc(OC)cc1)c1ccc(OC)cc1)c1cn(CC(O)CN(CCO)CCO)c2ccccc12 (stereo unspecified) | inconclusive: 25.1 µM [inhibitor, single point] | – |
| OCCN1CCOCCOCCN(CCO)CCN(CCO)CC1 | inconclusive: 0.158 µM [inhibitor, full curve, poor fit] | – |
| O=C(N/N=C/c1cccc([N+](=O)[O-])c1O)c1cccs1 | inactive | – |
| O=C(Nc1ccc(-c2cn3ccccc3n2)cc1)c1cccs1 | inconclusive: 39.8 µM [inhibitor, single point] | – |
| C=CCN1C(=O)/C(=C/c2ccc(OCC(=O)O)cc2)S/C1=N/c1nccs1 | inconclusive: 39.8 µM [inhibitor, single point] | – |
| CCc1cccc(CC)c1NC(=O)c1cc(CN2C(=O)c3ccccc3C2=O)ccc1OC | inconclusive: 0.355 µM [inhibitor, full curve, poor fit] | – |
| CC(C)CCNC(=O)c1cc(-c2ccco2)nc2ccccc12 | inactive | – |
| O=C1C2=CC[C@@H]3C(=O)N(c4ccc(F)cc4F)C(=O)[C@H]3[C@H]2[C@H](O)[C@H]2O[C@H]12 | – | inactive: 1.18% [at 12.4 µM] |
| COc1ccc(S(=O)(=O)Nc2ccc(C(F)(F)F)cc2)cc1OC | inconclusive: 35.5 µM [inhibitor, partial curve, poor fit] | – |
| O=C(Nc1ccc([N+](=O)[O-])cc1)c1ccc(Cn2cc([N+](=O)[O-])cn2)cc1 | inconclusive: 31.6 µM [inhibitor, partial curve, poor fit] | – |
| COc1ccc(NC(=O)c2ccc(-c3ccccc3)cc2)cc1NS(=O)(=O)c1ccc(F)cc1 | inconclusive: 17.8 µM [inhibitor, partial curve] | – |
| CC(C)(C=O)C1=CC(=O)c2ccccc2C1=O | inactive | – |
| CCOC(=O)N1CCC(NC(=O)C2CCN(c3nc(-c4ccc(OC)cc4)no3)CC2)CC1 | inconclusive: 0.199 µM [inhibitor, full curve, poor fit] | – |
| CCOC(=O)C1=C(c2ccccc2)NC(SC)=C(C#N)C1c1ccco1 (stereo unspecified) | inconclusive: 44.7 µM [inhibitor, single point] | – |
| O=C(CSc1nc2sc3c(c2c(=O)n1-c1ccccc1)CCCC3)N/N=C/c1ccccc1C(=O)O | active: 10.6 µM | – |
| O=CN/C=C/c1cc(O)ccc1O | active: 10 µM | – |
| c1cncc(CSc2nnc3ccc(-c4ccncc4)nn23)c1 | inconclusive: 28.2 µM [inhibitor, partial curve, poor fit] | – |

Complete entries, looked up by structure. Order of values: Potency | activity change, negative = inhibition
COc1ccc(S(=O)(=O)Nc2ccc(C(F)(F)F)cc2)cc1OC in the list: inconclusive: 35.5 µM [inhibitor, partial curve, poor fit] | –
O=C1C2=CC[C@@H]3C(=O)N(c4ccc(F)cc4F)C(=O)[C@H]3[C@H]2[C@H](O)[C@H]2O[C@H]12 in the list: – | inactive: 1.18% [at 12.4 µM]
Nc1nccc(/C=C/c2c(Cl)cccc2Cl)n1 in the list: inconclusive: 5.62 µM [inhibitor, single point] | –

(cont.)

| SMILES | Potency | activity change, negative = inhibition |
| --- | --- | --- |
| Cc1cc(C)c(C(=O)CN2C(=O)NC3(CCCCCC3)C2=O)cc1C | inconclusive: 28.2 µM [inhibitor, partial curve, poor fit] | – |
| O=C(NCc1ccco1)c1ccc(CNc2c(N3CCCCC3)c(=O)c2=O)cc1 | inconclusive: 2.82 µM [inhibitor, single point] | – |
| Cc1ccc2nc(Cl)c(C3CC(c4ccco4)=NN3C(=O)CCCC(=O)O)cc2c1 (stereo unspecified) | inactive | – |
| COc1ccccc1N1CCN(/N=C/c2cc(OC)c(O)c(OC)c2)CC1 | inconclusive: 4.47 µM [inhibitor, single point] | – |
| COc1cc(/C=C2\SC(=S)N(NS(=O)(=O)c3ccc(C)cc3)C2=O)ccc1O | inactive | – |
| CSc1ccccc1NC(=O)COc1ccc(Cl)cc1 | inconclusive: 3.55 µM [inhibitor, partial curve, poor fit] | – |
| COc1ccccc1-c1cc(-c2ccc(C)cc2)nc(SCc2nnc(-c3ccccc3)o2)c1C#N | inconclusive: 44.7 µM [inhibitor, single point] | – |
| N/C(=N\OC(=O)Cc1ccc(Cl)cc1)c1ccncc1 | inconclusive: 0.0398 µM [inhibitor, full curve, poor fit] | – |
| CC1CC=CC2C1C(=O)N(Cc1ccccc1)C2c1ccc(-c2ccoc2)cc1F (stereo unspecified) | inactive | – |
| CCNC(=O)COC(=O)c1cc(-c2ccco2)nc2ccccc12 | active: 25.1 µM | – |
| O=C(N/N=C/c1ccc(OC(F)F)cc1)c1ccc(Br)cc1 | inactive | – |
| Cn1c(NCc2ccccc2)nc2c1c(=O)n(Cc1ccc(Br)cc1)c(=O)n2C | inconclusive: 20 µM [inhibitor, single point] | – |
| Cc1noc(C)c1S(=O)(=O)N1CCCC(C(=O)N2CCc3ccccc3C2)C1 (stereo unspecified) | inconclusive: 0.0316 µM [inhibitor, full curve, poor fit] | – |
| COc1cccc(NC(=O)c2cc(-c3ccc(C)o3)nc3ccccc23)c1 | inconclusive: 21.2 µM [inhibitor, single point] | – |
| CCOc1cc(/C=N/Nc2nc3ccccc3[nH]2)cc(Br)c1OCC(=O)N(C)C | inconclusive: 44.7 µM [inhibitor, single point] | – |
| CC1(C)Oc2cc3c(cc2O1)OC(C)(C)O3 | inconclusive: 3.55 µM [inhibitor, single point] | – |
| CCC(NC(=O)OC(C)(C)C)C(=O)Oc1ccc2c3c(c(=O)oc2c1)CCC3 (stereo unspecified) | inconclusive: 31.6 µM [inhibitor, single point] | – |
| COc1ccc(NC(=O)c2ccc(-n3c(C)ccc3C)cc2)c(OC)c1 | inconclusive: 5.62 µM [inhibitor, single point] | – |
| NC1(C(=O)O)CCc2cc(C(=O)O)ccc21 (stereo unspecified) | inconclusive: 35.5 µM [inhibitor, single point] | – |
| CN(C)S(=O)(=O)N(CC(=O)Nc1cccc(F)c1)c1ccccc1 | inconclusive: 0.891 µM [inhibitor, full curve, poor fit] | – |

Reference: PubChem BioAssay AID2517 (National Center for Advancing Translational Sciences (NCATS), 2010)
